Source: article doi:10.1101/222083
No constants are given. Whether binding was seen depends on the method and setting. For part of these data: Binding seen in cells or lysates may run through a third protein. Some binding calls cover weakened binding; strength is not graded here. For part of these data: Where a sequence is shown, tags or fusion partners need not be part of it.

Protein sequences, listed by entry. Tags and fused reporters are not part of them.
UniProt Q1D6H4: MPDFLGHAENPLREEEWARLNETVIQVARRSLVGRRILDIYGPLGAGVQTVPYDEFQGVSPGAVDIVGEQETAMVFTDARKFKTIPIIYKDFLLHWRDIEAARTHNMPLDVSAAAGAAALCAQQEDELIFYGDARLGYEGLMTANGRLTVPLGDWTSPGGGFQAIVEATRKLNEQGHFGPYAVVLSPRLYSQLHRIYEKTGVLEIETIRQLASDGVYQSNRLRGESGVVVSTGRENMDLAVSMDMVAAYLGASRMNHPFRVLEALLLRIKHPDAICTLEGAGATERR

Columns and labels:
[1] = biological target: MxEncA^FLAG, encapsulin shell protein A of M. xanthus with C-terminal FLAG tag (M. xanthus) (UniProt Q1D6H4); assay: native gel or EMSA
[2] = biological target: MxEncA^FLAG, encapsulin shell protein A of M. xanthus with C-terminal FLAG tag (M. xanthus) (UniProt Q1D6H4); assay: cryo-EM structure
[3] = biological target: MxEncA^FLAG, encapsulin shell protein A of M. xanthus with C-terminal FLAG tag (M. xanthus) (UniProt Q1D6H4); assay: native gel or EMSA; remark: listed apart in the source
[4] = biological target: MxEncA^FLAG, encapsulin shell protein A of M. xanthus with C-terminal FLAG tag (M. xanthus) (UniProt Q1D6H4); assay: co-IP

Row | binding [1] | binding [2] | binding [3] | binding [4] | Molecule
1 | binds | binds | binds |  | MxEncA^FLAG, encapsulin shell protein A of M. xanthus with C-terminal FLAG tag (from UniProt Q1D6H4 1-287)
2 |  |  |  | binds | Myc-tagged encapsulin cargo protein B (MxEncB) (protein, UniProt Q1D6H3 1-158) MAGPPDSDLDDVARIRLVLARELETINEYEAYARASSNPEVRAFFQHLAAEEKEHVSEAVHMLRMLDSGQNDHFAKPFVPGHFQAAEAPAPATVHVPTPDGPAFSVNGRNGRLPSEPPTSLPPQRLLYGLPAPPPAVESHPLTVGSLRRGGGGSGSGR
3 |  |  |  | binds | Myc-tagged encapsulin cargo protein C (MxEncC) (protein, UniProt Q1D3Y8 1-130) MPQTNPFHSLVPRKMTDTELARSIRLNIEAELDAINLYAAHIDATDNEDAKAILQHVMDEEREHAALFWELIARLDPEQAAHAKEAVEKYRLITSGASHEAVEAVGKEGAAPSPADVTPEKRLTVGSLRR
4 |  |  |  | binds | Myc-tagged encapsulin cargo protein D (MxEncD) (protein, UniProt Q1D9P3 1-109) MAKNSNPSAFDRDFGYLMPFLDRVAAAASDLEDASARAELTRLMVEEKARWQRIQELLGGAGGRGAAAPTPAREAPAEAPRLARGSADELHEAAPFATGLTVGSLRGSR
